Data as given in PMC6274753.

Target: T1, TBC1D21 (bait of the co-IP and nano LC-MS/MS screen) (UniProt Q8IYX1)
T1 sequence: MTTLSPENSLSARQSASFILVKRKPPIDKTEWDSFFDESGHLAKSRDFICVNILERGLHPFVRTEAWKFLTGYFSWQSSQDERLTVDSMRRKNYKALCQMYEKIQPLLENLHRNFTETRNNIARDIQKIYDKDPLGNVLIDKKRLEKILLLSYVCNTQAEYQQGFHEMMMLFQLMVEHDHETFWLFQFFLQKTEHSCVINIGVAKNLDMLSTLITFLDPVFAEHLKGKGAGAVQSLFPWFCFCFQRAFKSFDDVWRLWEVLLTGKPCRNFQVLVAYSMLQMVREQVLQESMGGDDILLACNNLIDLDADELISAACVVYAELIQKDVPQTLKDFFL
Assay: affinity purification with mass spectrometry; co-IP of TBC1D21 followed by nano LC-MS/MS, as described previously (refs. 9, 10)

Rap1 (found in the TBC1D21 co-IP by nano LC-MS/MS)
binding: binds

Results are given in words; binding and its absence hold for the method and conditions named. Binding seen in cells or lysates may run through a third protein. These calls come from enrichment with a bait or labelling near it, and not all partners need be listed.
